{
  "source": "paper PMC10796436",
  "about": "“Peptidyl nitroalkene inhibitors of main protease rationalized by computational and crystallographic investigations as antivirals against SARS-CoV-2” (Communications Chemistry, 2024)",
  "target": "M^pro (Severe acute respiratory syndrome coronavirus 2, UniProt P0DTD1)",
  "assay_type": "biochemical",
  "details": "triplicate wells",
  "protocol": "Buffer: 20 mM Tris, 0.1 mM EDTA, 1 mM DTT, 200 mM NaCl pH = 7.5. For the dilution assay Nirmatrelvir[21] was used as a reversible control and LM188[54] as an irreversible control (Fig. 10).\nThe incubation was done at RT for 30 min in assay buffer. DMSO was used as a control. After incubation the Enzyme/Inhibitor (or DMSO) mixtures were diluted 100-fold in assay buffer.\nThe preincubation was done in assay buffer (20 mM Tris, 0.1 mM EDTA, 1 mM DTT, 200 mM NaCl, pH = 7.5), at RT for 30 min. After incubation the mixtures were diluted […]\nproteolytic activity of the enzyme was measured as described for the enzymatic assays using the […]\nactivity was measured over 1 h.\nInhibition assay58. Trypsin: Enzyme: bovine trypsin purchased from Sigma-Aldrich (St. Louis, […]\nSubstrate: Cbz-FR-AMC purchased from Bachem (Bubendorf, Switzerland), [Substrate]: 40 µM […]\nThe activity against bovine trypsin was tested at 20 µM inhibitor concentration. […]",
  "note": "Values joined by “and” are separate entries in the source; they are usually repeats but may differ in a detail not shown here. Identical values can stand only once. Like-named read-outs stand apart in the source and are kept apart here. Further values from the same series stand in other lists.",
  "data": [
    {"smiles": "COc1cccc2[nH]c(C(=O)N[C@@H](CC(C)C)C(=O)N[C@H](/C=C/[N+](=O)[O-])C[C@@H]3CCNC3=O)cc12", "note": "[FGA146]", "values": [
      {"measurement": "Fluorescence reading (progress curve)", "setting": "Time 0 s", "result": "403 and 389 and 374"},
      {"measurement": "Fluorescence reading (progress curve)", "setting": "Time 30.009 s", "result": "457 and 435 and 430"},
      {"measurement": "Fluorescence reading (progress curve)", "setting": "Time 60.029 s", "result": "510 and 490 and 481"},
      {"measurement": "Fluorescence reading (progress curve)", "setting": "Time 90.04 s", "result": "564 and 538 and 539"},
      {"measurement": "Fluorescence reading (progress curve)", "setting": "Time 120.057 s", "result": "606 and 585 and 592"},
      {"measurement": "Fluorescence reading (progress curve)", "setting": "Time 150.063 s", "result": "653 and 636 and 638"},
      {"measurement": "Fluorescence reading (progress curve)", "setting": "Time 450.157 s", "result": 1064},
      {"measurement": "Fluorescence reading (progress curve)", "setting": "Time 480.18 s", "result": "1100 and 1072 and 1106"},
      {"measurement": "Fluorescence reading (progress curve)", "setting": "Time 510.193 s", "result": "1118 and 1109 and 1137"},
      {"measurement": "Fluorescence reading (progress curve)", "setting": "Time 540.2 s", "result": "1159 and 1147 and 1167"},
      {"measurement": "Fluorescence reading (progress curve)", "setting": "Time 570.216 s", "result": "1196 and 1182 and 1210"},
      {"measurement": "Fluorescence reading (progress curve)", "setting": "Time 600.232 s", "result": "1223 and 1212 and 1242"},
      {"measurement": "Fluorescence reading (progress curve)", "setting": "Time 630.25 s", "result": "1265 and 1239 and 1272"},
      {"measurement": "Fluorescence reading (progress curve)", "setting": "Time 660.257 s", "result": "1281 and 1256 and 1292"},
      {"measurement": "Fluorescence reading (progress curve)", "setting": "Time 690.266 s", "result": "1325 and 1296 and 1338"},
      {"measurement": "Fluorescence reading (progress curve)", "setting": "Time 720.275 s", "result": "1346 and 1316 and 1367"},
      {"measurement": "Fluorescence reading (progress curve)", "setting": "Time 750.289 s", "result": "1368 and 1337 and 1362"},
      {"measurement": "Fluorescence reading (progress curve)", "setting": "Time 780.305 s", "result": "1396 and 1380 and 1375"},
      {"measurement": "Fluorescence reading (progress curve)", "setting": "Time 810.312 s", "result": "1422 and 1407 and 1440"},
      {"measurement": "Fluorescence reading (progress curve)", "setting": "Time 840.326 s", "result": "1451 and 1433 and 1470"},
      {"measurement": "Fluorescence reading (progress curve)", "setting": "Time 870.344 s", "result": "1477 and 1461 and 1505"},
      {"measurement": "Fluorescence reading (progress curve)", "setting": "Time 900.356 s", "result": "1517 and 1497"},
      {"measurement": "Fluorescence reading (progress curve)", "setting": "Time 930.361 s", "result": "1519 and 1483 and 1542"},
      {"measurement": "Fluorescence reading (progress curve)", "setting": "Time 960.372 s", "result": "1564 and 1523 and 1570"},
      {"measurement": "Fluorescence reading (progress curve)", "setting": "Time 990.388 s", "result": "1560 and 1546 and 1589"},
      {"measurement": "Fluorescence reading (progress curve)", "setting": "Time 1020.4 s", "result": "1594 and 1565 and 1602"},
      {"measurement": "Fluorescence reading (progress curve)", "setting": "Time 1050.42 s", "result": "1606 and 1584 and 1630"},
      {"measurement": "Fluorescence reading (progress curve)", "setting": "Time 1080.42 s", "result": "1634 and 1615 and 1661"},
      {"measurement": "Fluorescence reading (progress curve)", "setting": "Time 1110.44 s", "result": "1657 and 1611 and 1659"},
      {"measurement": "Fluorescence reading (progress curve)", "setting": "Time 1140.45 s", "result": "1677 and 1642 and 1683"},
      {"measurement": "Fluorescence reading (progress curve)", "setting": "Time 1170.46 s", "result": "1671 and 1670 and 1709"},
      {"measurement": "Fluorescence reading (progress curve)", "setting": "Time 1200.47 s", "result": "1707 and 1671 and 1721"},
      {"measurement": "Fluorescence reading (progress curve)", "setting": "Time 1230.49 s", "result": "1725 and 1711 and 1741"},
      {"measurement": "Fluorescence reading (progress curve)", "setting": "Time 1260.5 s", "result": "1745 and 1713 and 1747"},
      {"measurement": "Fluorescence reading (progress curve)", "setting": "Time 1290.52 s", "result": "1765 and 1743 and 1791"},
      {"measurement": "Fluorescence reading (progress curve)", "setting": "Time 1320.53 s", "result": "1802 and 1764 and 1773"},
      {"measurement": "Fluorescence reading (progress curve)", "setting": "Time 1350.55 s", "result": "1786 and 1749 and 1798"},
      {"measurement": "Fluorescence reading (progress curve)", "setting": "Time 1380.55 s", "result": "1796 and 1788 and 1805"},
      {"measurement": "Fluorescence reading (progress curve)", "setting": "Time 1410.56 s", "result": "1827 and 1815 and 1833"},
      {"measurement": "Fluorescence reading (progress curve)", "setting": "Time 1440.57 s", "result": "1849 and 1797 and 1847"},
      {"measurement": "Fluorescence reading (progress curve)", "setting": "Time 1470.58 s", "result": "1864 and 1834 and 1868"},
      {"measurement": "Fluorescence reading (progress curve)", "setting": "Time 1500.6 s", "result": "1881 and 1837 and 1879"},
      {"measurement": "Fluorescence reading (progress curve)", "setting": "Time 1530.61 s", "result": "1875 and 1865 and 1881"},
      {"measurement": "Fluorescence reading (progress curve)", "setting": "Time 1560.62 s", "result": "1906 and 1871 and 1894"},
      {"measurement": "Fluorescence reading (progress curve)", "setting": "Time 1590.64 s", "result": "1895 and 1888 and 1914"},
      {"measurement": "Fluorescence reading (progress curve)", "setting": "Time 1620.64 s", "result": "1933 and 1889 and 1908"},
      {"measurement": "Fluorescence reading (progress curve)", "setting": "Time 1650.65 s", "result": "1922 and 1912 and 1926"},
      {"measurement": "Fluorescence reading (progress curve)", "setting": "Time 1680.66 s", "result": "1949 and 1903 and 1947"},
      {"measurement": "Fluorescence reading (progress curve)", "setting": "Time 1710.68 s", "result": "1960 and 1934 and 1965"},
      {"measurement": "Fluorescence reading (progress curve)", "setting": "Time 1740.69 s", "result": "1983 and 1937 and 1986"},
      {"measurement": "Fluorescence reading (progress curve)", "setting": "Time 1770.7 s", "result": "1982 and 1940 and 1970"},
      {"measurement": "Fluorescence reading (progress curve)", "setting": "Time 1800.72 s", "result": "1994 and 1959 and 1985"},
      {"measurement": "Fluorescence reading (progress curve)", "setting": "Time 1830.73 s", "result": "2001 and 1976 and 2008"},
      {"measurement": "Fluorescence reading (progress curve)", "setting": "Time 1860.74 s", "result": "2007 and 1986 and 2024"},
      {"measurement": "Fluorescence reading (progress curve)", "setting": "Time 1890.75 s", "result": "2049 and 1997 and 2028"},
      {"measurement": "Fluorescence reading (progress curve)", "setting": "Time 1920.77 s", "result": "2040 and 1994 and 2034"},
      {"measurement": "Fluorescence reading (progress curve)", "setting": "Time 1950.78 s", "result": "2048 and 2016 and 2056"},
      {"measurement": "Fluorescence reading (progress curve)", "setting": "Time 1980.8 s", "result": "2051 and 2022 and 2053"},
      {"measurement": "Fluorescence reading (progress curve)", "setting": "Time 2010.81 s", "result": "2066 and 2022 and 2048"},
      {"measurement": "Fluorescence reading (progress curve)", "setting": "Time 2040.83 s", "result": "2074 and 2062 and 2086"},
      {"measurement": "Fluorescence reading (progress curve)", "setting": "Time 2070.84 s", "result": "2085 and 2041 and 2079"},
      {"measurement": "Fluorescence reading (progress curve)", "setting": "Time 2100.86 s", "result": "2075 and 2048 and 2095"},
      {"measurement": "Fluorescence reading (progress curve)", "setting": "Time 2130.86 s", "result": "2091 and 2062 and 2088"},
      {"measurement": "Fluorescence reading (progress curve)", "setting": "Time 2160.87 s", "result": "2124 and 2056 and 2084"},
      {"measurement": "Fluorescence reading (progress curve)", "setting": "Time 2190.89 s", "result": "2114 and 2066 and 2109"},
      {"measurement": "Fluorescence reading (progress curve)", "setting": "Time 2220.91 s", "result": "2098 and 2080 and 2128"},
      {"measurement": "Fluorescence reading (progress curve)", "setting": "Time 2250.92 s", "result": "2121 and 2085 and 2110"},
      {"measurement": "Fluorescence reading (progress curve)", "setting": "Time 2280.93 s", "result": "2135 and 2096 and 2133"},
      {"measurement": "Fluorescence reading (progress curve)", "setting": "Time 2310.95 s", "result": "2143 and 2083 and 2120"},
      {"measurement": "Fluorescence reading (progress curve)", "setting": "Time 2340.96 s", "result": "2146 and 2105 and 2123"},
      {"measurement": "Fluorescence reading (progress curve)", "setting": "Time 2370.96 s", "result": "2133 and 2103 and 2134"},
      {"measurement": "Fluorescence reading (progress curve)", "setting": "Time 2400.97 s", "result": "2150 and 2113 and 2148"},
      {"measurement": "Fluorescence reading (progress curve)", "setting": "Time 2430.99 s", "result": "2167 and 2117 and 2150"},
      {"measurement": "Fluorescence reading (progress curve)", "setting": "Time 2461.01 s", "result": "2153 and 2116 and 2151"},
      {"measurement": "Fluorescence reading (progress curve)", "setting": "Time 2491.03 s", "result": "2142 and 2107 and 2175"},
      {"measurement": "Fluorescence reading (progress curve)", "setting": "Time 2521.03 s", "result": "2167 and 2132 and 2159"},
      {"measurement": "Fluorescence reading (progress curve)", "setting": "Time 2551.05 s", "result": "2160 and 2135 and 2181"},
      {"measurement": "Fluorescence reading (progress curve)", "setting": "Time 2581.07 s", "result": "2186 and 2125 and 2187"},
      {"measurement": "Fluorescence reading (progress curve)", "setting": "Time 2611.08 s", "result": "2182 and 2135 and 2175"},
      {"measurement": "Fluorescence reading (progress curve)", "setting": "Time 2641.09 s", "result": "2197 and 2140 and 2157"},
      {"measurement": "Fluorescence reading (progress curve)", "setting": "Time 2671.11 s", "result": "2201 and 2144 and 2187"},
      {"measurement": "Fluorescence reading (progress curve)", "setting": "Time 2701.12 s", "result": "2191 and 2170 and 2184"},
      {"measurement": "Fluorescence reading (progress curve)", "setting": "Time 2731.13 s", "result": "2200 and 2147 and 2181"},
      {"measurement": "Fluorescence reading (progress curve)", "setting": "Time 2761.14 s", "result": "2199 and 2150 and 2195"},
      {"measurement": "Fluorescence reading (progress curve)", "setting": "Time 2791.15 s", "result": "2196 and 2168 and 2215"},
      {"measurement": "Fluorescence reading (progress curve)", "setting": "Time 2821.16 s", "result": "2189 and 2169 and 2202"},
      {"measurement": "Fluorescence reading (progress curve)", "setting": "Time 2851.18 s", "result": "2221 and 2170 and 2178"}
    ]}
  ]
}
